No constants are given. Whether binding was seen depends on the method and setting. For some assays here: Binding seen in cells or lysates may run through a third protein. Some binding calls cover weakened binding; strength is not graded here. Each block holds one binder with its values, some of them ahead of it.
What was measured:
[1] = target: FLAG-tagged wild type (WT) WWP1 (WW domain containing E3 ubiquitin protein ligase 1) (human) (UniProt Q9H0M0); assay: co-IP; HEK293T cells transfected with Flag-WWP1 or empty vector; lysates in Triton-NaCl extraction buffer (250 mM NaCl, 0.5% Triton-X-100, pH 7.5) precipitated overnight with anti-FLAG M2 affinity resin; blot with anti-TXNIP and anti-Flag
[2] = target: Recombinant human WWP1 protein (human) (UniProt Q9H0M0); assay: pull-down; recombinant WWP1 (300 ng) and recombinant TXNIP (300 ng) incubated overnight at 4 °C in 50 mM Tris-HCl pH 7.5, 150 mM NaCl, 0.1% NP-40, 1 mM EDTA; WWP1 precipitated with anti-WWP1 antibody on protein A beads; blot with anti-TXNIP; isotypic IgG as negative control; both purified

binding [1]: binds
B1: Thioredoxin-interacting protein (TXNIP), endogenous in HEK293T cells (protein, UniProt Q9H3M7-1 1-391)
chain: MVMFKKIKSFEVVFNDPEKVYGSGEKVAGRVIVEVCEVTRVKAVRILACGVAKVLWMQGSQQCKQTSEYLRYEDTLLLEDQPTGENEMVIMRPGNKYEYKFGFELPQGPLGTSFKGKYGCVDYWVKAFLDRPSQPTQETKKNFEVVDLVDVNTPDLMAPVSAKKEKKVSCMFIPDGRVSVSARIDRKGFCEGDEISIHADFENTCSRIVVPKAAIVARHTYLANGQTKVLTQKLSSVRGNHIISGTCASWRGKSLRVQKIRPSILGCNILRVEYSLLIYVSVPGSKKVILDLPLVIGSRSGLSSRTSSMASRTSSEMSWVDLNIPDTPEAPPCYMDVIPEDHRLESPTTPLLDDMDGSQDSPIFMYAPEFKFMPPPTYTEVDPCILNNNVQ

binding [2]: binds
B2: Recombinant TXNIP protein (protein, UniProt Q9H3M7 1-391)
chain: B1 chain

— publication PMC11705725
